Results from article PMC5665887.

Target: T1, FLAG-tagged evectin-2 (WT) (UniProt Q96CS7)
T1 sequence: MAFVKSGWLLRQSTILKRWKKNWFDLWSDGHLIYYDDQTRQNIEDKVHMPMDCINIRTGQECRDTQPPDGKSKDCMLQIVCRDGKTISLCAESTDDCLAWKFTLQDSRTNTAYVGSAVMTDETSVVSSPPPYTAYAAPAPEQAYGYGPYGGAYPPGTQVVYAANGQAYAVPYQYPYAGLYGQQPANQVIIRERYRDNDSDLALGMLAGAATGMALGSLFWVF
Assay: affinity purification with mass spectrometry; immunoprecipitates of FLAG-tagged evectin-2; peptides identified; cells and conditions not told in the text shown

binding, binds:
Itch (endogenous) (enzyme), WWP1 (endogenous) (enzyme), WWP2 (endogenous) (enzyme)

These are yes or no findings as the source states them, for the method shown. In cells and extracts the contact can be indirect. Here binding means that the protein was enriched with, or labelled near, the bait; the list need not be complete. Tags and fused reporters may be left off the sequences shown.
